Measurements: PubChem BioAssay AID540276 (National Center for Advancing Translational Sciences (NCATS), 2011)
Hit rate of the full screen: of about 300,000 compounds, about 5,400 (1.8%) were called active. Inconclusive means that the source gave no clear call. Such entries were picked first, then a sample of the others. Calls follow the shape of the full dose curve; tested in HEK293 cells. Potencies beside an inconclusive call are fits to weak or partial responses and may not hold up.
% is scaled to controls: 0 for no effect and ±100 for the full control effect; potency is read from the fitted curve at half-maximal effect.

Experiment: qHTS for inhibitors of binding or entry into cells for Marburg Virus
Settings: Marburg virus pseudotyped entry inhibition, cell reporter; activity change, negative = inhibition: at 37.8 µM (top of the series) unless noted
In the case of `Cc1ccc([N+](=O)[O-])c2cccnc12`, the “activity change, negative = inhibition” value is reported as inactive: -3.16%.
In the case of `CCOC(=O)N1CCN(C(=O)c2ccc3c(SCC(=O)O)c4c(nc3c2)CCCC4)CC1`, the “activity change, negative = inhibition” value is reported as inactive: -7.49%.
In the case of `O=c1[nH][nH]c2c(N=Cc3ccccc3O)ccc(F)c12`, the Potency is reported as inconclusive: 14.1 µM [inhibitor, partial curve, poor fit].
With `CCN(CC)CCCNc1nc(C)cc(COC)c1C#N` the Potency was inconclusive: 3.98 µM [inhibitor, single point].
With `CN(C)Cc1cc(C(F)(F)F)ccc1C(O)(c1ccccc1)c1ccccc1` the Potency was inconclusive: 11.2 µM [inhibitor, partial curve, poor fit].
For `CC(=O)NC(c1ccc(Cl)cc1)c1c(O)ccc2ccc(O)cc12` (stereo unspecified), the Potency was inconclusive: 6.31 µM [activator, single point].
With `Cc1c2cnn(-c3ccccc3)c(=O)c2c(C)n1CCCC(=O)Nc1cccc(F)c1` the Potency was inconclusive: 20 µM [activator, partial curve, poor fit].
For `CSc1nc2nc3c(cn2n1)C(=O)CC(c1ccccc1)C3` (stereo unspecified), the “activity change, negative = inhibition” value was inactive: 10.5%.
With `CN(C)c1cccc(C(=O)N/N=C/c2ccsc2)c1` the Potency was inconclusive: 5.62 µM [inhibitor, partial curve, poor fit].
With `O=C(NCCCN1CCCC1)Nc1cccc2ccccc12` the Potency was inconclusive: 12.6 µM [activator, single point].
With `COc1ccc(C(=O)OCC(=O)Nc2ccc3[nH]c(=O)[nH]c3c2)cc1` the activity change, negative = inhibition was inconclusive: 0.785% [activator].
For `Cc1ccc(-c2c3c(=O)n(C)c(=O)n(C)c3c3c(-c4cccc(C)c4)nc4ccccc4n23)cc1`, the Potency was inconclusive: 0.562 µM [inhibitor, full curve, poor fit].
In the case of `CC1CCCCC1NC(=O)CCNC(=O)N1CC(=O)Nc2ccccc21` (stereo unspecified), the Potency is reported as inconclusive: 3.16 µM [activator, single point].
In the case of `CCOC(=O)c1ccc(N2CCN(c3ccccc3F)CC2)c(NC(=O)Nc2cccc(OC)c2)c1`, the Potency is reported as inconclusive: 2.24 µM [inhibitor, full curve, poor fit].
For `Oc1[nH]c2ccccc2c1N=Nc1ccccc1F`, the Potency was inconclusive: 5.62 µM [inhibitor, single point].
In the case of `O=C(NCc1cn(-c2ccccc2)nc1-c1ccc(F)cc1)c1cccc([N+](=O)[O-])c1`, the Potency is reported as inconclusive: 7.08 µM [inhibitor, partial curve, poor fit].
With `CC(Oc1ccccc1)C(=O)Nc1ccc(S(=O)(=O)Nc2nccs2)cc1` (stereo unspecified) the Potency was inconclusive: 12.6 µM [inhibitor, single point].
In the case of `Cc1ccc(C(=O)OCC(=O)c2c[nH]c3ccccc23)cc1`, the Potency is reported as inconclusive: 3.16 µM [activator, full curve, poor fit].
For `CC1=CC(c2ccccc2)n2nnnc2N1` (stereo unspecified), the Potency was inconclusive: 10 µM [inhibitor, partial curve, poor fit].
For `Cc1nnc(SCC(=O)Nc2ccc(S(N)(=O)=O)cc2)n(N)c1=O`, the “activity change, negative = inhibition” value was inactive: -17.7% [at 46.1 µM].
In the case of `O=C(Nc1ccc2ccccc2n1)c1ccccc1Br`, the Potency is reported as inconclusive: 1.26 µM [activator, partial curve, poor fit].
With `CCCCN(CC)C(=O)CN(C)S(=O)(=O)c1cccc2nsnc12` the Potency was inconclusive: 5.62 µM [activator, single point].
With `O=C(Nc1ccc(Cl)cc1)ON=C1CCCC1` the Potency was inconclusive: 22.4 µM [inhibitor, single point].
With `CC(C)c1ccccc1NC(=O)CCc1nc2ccccc2s1` the “activity change, negative = inhibition” value was inactive: -1.22%.
For `CNC(=S)N/N=C/c1c(C)nn(-c2cccc(Cl)c2)c1Cl`, the “activity change, negative = inhibition” value was inactive: -20.3%.
With `CCOC(=O)c1ccccc1NC(=O)CSc1cccc[n+]1[O-]` the “activity change, negative = inhibition” value was inactive: 0.664%.
In the case of `COc1ccccc1-c1cc(C(F)(F)F)nc(S(=O)(=O)CCCC(=O)NCc2ccc(F)cc2)n1`, the Potency is reported as inconclusive: 12.6 µM [inhibitor, partial curve, poor fit].
For `Cc1ccc(CCNC(=O)CNC(=S)N(Cc2ccccc2)Cc2cccnc2)cc1`, the Potency was inconclusive: 12.6 µM [inhibitor, single point].
In the case of `CC(=O)Oc1ccc2c(=O)c(-c3nc4ccccc4s3)coc2c1`, the Potency is reported as inconclusive: 2.51 µM [inhibitor, full curve, poor fit].
For `O=C(C[n+]1ccc(/C=N/O)cc1)NC1CCCCC1`, the Potency was “inactive”.
With `COc1ccccc1OCCSc1nc2ccccc2c(=O)[nH]1` the “activity change, negative = inhibition” value was inactive: 5.67%.
With `COCCN(CCOC)S(=O)(=O)c1ccc(C(=O)NC2CCN(Cc3ccccc3)CC2)cc1` the Potency was inconclusive: 7.94 µM [inhibitor, partial curve, poor fit].
In the case of `O=C(Cn1cc(SCc2ccc(Cl)cc2)c2ccccc21)N1CCOCC1`, the Potency is reported as inconclusive: 3.55 µM [activator, single point].
With `COc1ccccc1OCC(=O)Nc1cc(S(=O)(=O)N2CCCCC2)ccc1N1CCCCC1` the Potency was inconclusive: 11.2 µM [inhibitor, partial curve, poor fit].
In the case of `O=C(Nc1ccc(S(=O)(=O)N2CCCCC2)cc1)C1CC(=O)N(c2ccc(Cl)cc2)C1` (stereo unspecified), the Potency is reported as inconclusive: 35.5 µM [inhibitor, partial curve, poor fit].
In the case of `O=C(O)c1ccc(COc2ccc(CO)cc2Cl)cc1`, the Potency is reported as inconclusive: 8.2 µM [activator, partial curve, poor fit].
In the case of `Cc1ccc(C)c(NC(=O)C2CCCN2C(=O)OC(C)(C)C)c1` (stereo unspecified), the “activity change, negative = inhibition” value is reported as inactive: 0%.
With `CCN(C(=O)CSc1nnc(Nc2cccc(C)c2C)s1)C1CCS(=O)(=O)C1` (stereo unspecified) the Potency was inconclusive: 35.5 µM [activator, single point].
For `COc1cc(C2c3c(-c4cc(C)ccc4O)n[nH]c3C(=O)N2Cc2ccco2)cc(OC)c1OC` (stereo unspecified), the Potency was inconclusive: 22.4 µM [inhibitor, single point].
With `CCn1cc(C(=O)NC2CCCCC2C)c(=O)c2ccc(C)nc21` (stereo unspecified) the “activity change, negative = inhibition” value was inactive: 5.52%.
With `S=C(Nc1ccc(Oc2ccccc2)cc1)NC1CCCCCC1` the Potency was inconclusive: 0.316 µM [activator, partial curve, poor fit].
In the case of `O=C(NC(=S)NCc1ccc(-c2nc3ccccc3s2)cc1)c1ccco1`, the Potency is reported as inconclusive: 1.78 µM [activator, single point].
For `CSc1ccc(-c2nnn(Cc3ccccn3)n2)cc1`, the Potency was inconclusive: 1.58 µM [activator, full curve, poor fit].
In the case of `Cc1ccc(N2C(=O)[C@@H]3CSC(c4ccc(Cl)cc4)N3C2=O)cc1` (stereo partly specified), the “activity change, negative = inhibition” value is reported as inactive: 16.4% [at 46.1 µM].
With `Cc1ccc2occ(CC(=O)N(Cc3ccc(Cl)cc3)Cc3ccco3)c2c1` the “activity change, negative = inhibition” value was inactive: -3.78% [at 46.1 µM].
With `CCOc1ccc(OCC)c(NC(=O)C2CCN(S(=O)(=O)c3ccc4c(c3)CC(C)N4C(C)=O)CC2)c1` (stereo unspecified) the Potency was inconclusive: 10 µM [inhibitor, partial curve, poor fit].
With `CCc1nnc(NC(=O)c2ccc(OC)c(S(=O)(=O)N3CCCC3)c2)s1` the Potency was inconclusive: 5.62 µM [inhibitor, single point].
For `NS(=O)(=O)c1ccc(CCNC(=O)c2cc(-c3ccccn3)nc3ccc(Br)cc23)cc1`, the Potency was inconclusive: 25.1 µM [inhibitor, single point].
In the case of `CCOc1ccc2c(c1)c(=O)c(C(=O)c1ccc(CC)cc1)cn2CC(=O)Nc1cccc(Cl)c1`, the “activity change, negative = inhibition” value is reported as inactive: 6.67% [at 46.1 µM].
For `Cc1ccc(NC(=O)COC(=O)C(NS(=O)(=O)c2ccc(Cl)cc2)C(C)O)cc1` (stereo unspecified), the Potency was inconclusive: 11.2 µM [activator, partial curve, poor fit].
With `COc1cc(C2CC(=O)Nc3ccc4ccccc4c32)ccc1OC(=O)C(C)C` (stereo unspecified) the “activity change, negative = inhibition” value was inactive: -12.3% [at 46.1 µM].
In the case of `O=C(Nc1cnn(Cc2ccc(F)cc2)c1)c1cnn2c(C(F)F)cc(-c3ccccc3)nc12`, the Potency is reported as inconclusive: 25.1 µM [inhibitor, partial curve, poor fit].
In the case of `C/C(=N\NC(=O)CN(c1ccc(C)cc1)S(C)(=O)=O)c1cccs1`, the Potency is reported as inconclusive: 0.0891 µM [activator, full curve, poor fit].
With `C/C=C/C(=O)Nc1nnc(C(C)C)s1` the Potency was inconclusive: 0.447 µM [activator, full curve, poor fit].
For `Cc1cc(NC(=O)CCC(=O)N(Cc2ccccc2)C(C(=O)NC2CCCC2)c2ccco2)no1` (stereo unspecified), the Potency was inconclusive: 4.47 µM [inhibitor, partial curve].
In the case of `C=CCNC(=O)c1cc(=O)c2ccccc2o1`, the “activity change, negative = inhibition” value is reported as inactive: -0.966%.
For `CCN1CCN(C(=O)c2ccc(CNS(=O)(=O)c3cccc(OC)c3)cc2)CC1`, the “activity change, negative = inhibition” value was inactive: -1.14%.
With `CCn1ncc(/C=N/NC(=O)c2ccc3c(c2)OCO3)c1C` the Potency was inconclusive: 35.5 µM [inhibitor, single point].
In the case of `COc1ccccc1S(=O)(=O)Cc1ccc(C(=O)N2CCN(c3cc(Cl)ccc3C)CC2)o1`, the “activity change, negative = inhibition” value is reported as inactive: -5.23% [at 46.1 µM].
In the case of `Cc1ccc(-c2csc3ncnc(Sc4nnc(CN5CCCCCC5=O)o4)c23)cc1`, the Potency is reported as inconclusive: 14.6 µM [inhibitor, partial curve, poor fit].
With `CCc1cccc(NC(=O)Nc2ccc3c(c2)OCO3)c1` the Potency was inconclusive: 6.31 µM [activator, single point].
For `CCOC(=O)c1c(-c2ccccc2)csc1NC(=O)CSc1nc(N)cc(N)n1`, the Potency was inconclusive: 1.26 µM [activator, single point].
With `Cc1onc(-c2c(Cl)cccc2Cl)c1C(=O)NC(=S)Nc1sc2c(c1C(N)=O)CCC(C)C2` (stereo unspecified) the Potency was inconclusive: 2.51 µM [activator, full curve].
With `CC(C)(C)NC(=O)CCCSc1nc2ccccc2s1` the Potency was inconclusive: 10 µM [inhibitor, partial curve, poor fit].
In the case of `O=C(/C=C/NNC(=O)c1ccc(Br)cc1)c1ccccc1`, the Potency is reported as inconclusive: 20 µM [inhibitor, single point].
With `O=C(NCCc1c[nH]c2ccccc12)c1ccc(Br)o1` the “activity change, negative = inhibition” value was inactive: 13.7%.
